We go through 63 compounds from PubChem BioAssay AID493014 (National Center for Advancing Translational Sciences (NCATS), 2011).

The other results are listed elsewhere or left out. Shown are side measurements of this screen, not its main read-out; they come without a call. The list favours compounds with an active or inconclusive main result. The note in brackets gives the kind of curve behind each potency; many fits are weak.

The nature of the test: qHTS Assay to Find Inhibitors of Chronic Active B-Cell Receptor Signaling. The note with it: ABC-DLBCL IkBa-CBG/CBR reporter, luminescence ratio (green luciferase fused to IkBa over red control in TMD8 lymphoma cells), 4 h. An outline of the steps:
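TMD8 human ABC-DLBCL cells with doxycycline-inducible IκBα–green luciferase fusion and unfused red luciferase, in 0.5% FBS medium; compounds up to 46 uM, 4 h at 37C. Green/red luminescence ratio, filter-overlap corrected, fitted to concentration-response curves.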
For orientation: Quantitative high-throughput screening tests each substance at several concentrations.

The mark [1] stands for this setting: measured here: CBR red luminescence, cell number.
The mark [2] stands for this setting: measured here: IkBa-CBG green luminescence.

By AC50 is commonly meant the midpoint of the concentration-response curve, whichever way the signal moves. Turning to `COc1c(C)cccc1C(=O)NC(=S)Nc1cccc2nsnc12`, under setting [1], the concentration at half-maximal activity (AC50) was 8.91 µM [falling, partial curve, poor fit].

`COCCN(CC(=O)NCc1ccc(F)cc1)C(=O)CCC(=O)Nc1nccs1`: under setting [1], the concentration at half-maximal activity (AC50) is 3.26 µM [falling, full curve, poor fit].

For `COc1ccc(N2CCN(C(=O)CNC(=O)c3cn(-c4ccccc4OC)c(=O)c4ccccc34)CC2)cc1`, the AC50 under setting [1] was 0.112 µM [falling, full curve, poor fit].

On to `CC(C)Sc1oc(-c2ccco2)nc1S(=O)(=O)c1ccc(F)cc1`, for which the AC50 under setting [2] was 23.1 µM [rising, partial curve, poor fit].

Regarding `N/C(=N\OC(=O)/C=C/c1ccccc1)c1ccccc1`, the AC50 under setting [1] was 10.3 µM [falling, partial curve, poor fit].

As for `O=C(NCc1cccc(C(F)(F)F)c1)N1CCN(C(=O)c2ccccc2)CC1`, the AC50 under setting [1] was 23.1 µM [rising, partial curve].

Turning to `Cn1cc(CN2CCC(CO)(CCCc3ccccc3)CC2)c(-c2ccccc2)n1`, the AC50 under setting [1] was 5.01 µM [falling, single point].

Turning to `O=C(Nc1cccnc1)c1coc(=O)c2ccccc12`, the AC50 under setting [2] was 20.6 µM [falling, single point].

Take `O=C(O)[C@H]1CCCN1S(=O)(=O)c1cccc2cccnc12`: the AC50 under setting [1] was 29.1 µM [rising, single point].

As to `Cc1ccccc1-n1c(-c2ccc3ccccc3n2)n[nH]c1=S`, under setting [1], the concentration at half-maximal activity (AC50) was 3.16 µM [falling, full curve].

For the compound `Cc1ccc(CNS(=O)(=O)c2c(C)[nH]c(=O)[nH]c2=O)cc1`, under setting [1], the AC50 was 0.1 µM [rising, full curve, poor fit].

For the compound `Cc1cccc(-c2noc(Cc3ccc(Cl)cc3)n2)c1`, the concentration at half-maximal activity (AC50) under setting [1] was 23.1 µM [rising, single point].

As for `COc1cc(C(c2c(C)[nH][nH]c2=O)c2c(C)[nH][nH]c2=O)ccc1OC(C)C`, the AC50 under setting [1] was 7.31 µM [falling, partial curve].

`CN(C)c1ccc(/C=c2\sc3n(c2=O)CCCN=3)cc1`: under setting [1], the AC50 is 2.31 µM [falling, full curve].

In the case of `CC(C)OC(=O)c1cc2c(ccn2C)n1CC(=O)N(Cc1ccccc1)c1ccc(F)cc1`, the AC50 under setting [1] is 16.4 µM [falling, partial curve, poor fit].

With `CNC(=O)c1sc(-c2ccccc2)nc1C`, the AC50 under setting [1] was 11.6 µM [rising, partial curve, poor fit].

As for `O=C(Nc1nc2c(s1)C(=O)CCC2)c1ccccc1`, under setting [1], the half-maximal activity concentration (AC50) is 3.98 µM [falling, full curve].

Regarding `O=C1NC(=Nc2ccc(O)cc2)S/C1=C\C=C\c1ccco1`, the half-maximal activity concentration (AC50) reads like this: under setting [1], 35.5 µM [rising, single point]; under setting [2], 7.08 µM [falling, partial curve].

With `O=C1N/C(=C/c2ccc(N3CCOCC3)cc2)C(=O)N1Cc1ccc(F)cc1`, the AC50 under setting [1] was 28.2 µM [falling, single point].

On to `COc1ccc(S(=O)(=O)N2CCOC23CCN(C(=O)c2c(F)cccc2Cl)CC3)cc1`, for which the AC50 under setting [1] was 5.62 µM [rising, single point].

Turning to `Cc1ccc(NC(=O)c2sc3nc(C)cc(C)c3c2N)cc1`, the concentration at half-maximal activity (AC50) under setting [1] was 17.8 µM [falling, partial curve, poor fit].

Consider `O=C(NCCN1CCCC1=O)C1CCC(=O)N(CCc2cccc(F)c2)C1` (stereo not drawn), for which the half-maximal activity concentration (AC50) under setting [1] was 20 µM [falling, single point].

In the case of `O=[N+]([O-])c1ccc2nc(SCc3ccccc3Cl)sc2c1`, the AC50 under setting [1] is 10 µM [rising, single point].

For `O=C(Nc1cccc(C(F)(F)F)c1)c1cccnn1`, under setting [1], the AC50 was 7.94 µM [rising, full curve, poor fit].

Turning to `Cc1onc(-c2ccccc2)c1C(=O)NC(=S)NNC(=O)c1cccnc1`, the AC50 under setting [1] was 29.1 µM [falling, partial curve, poor fit].

On to `O=C(Nc1cccc(F)c1)c1c(F)c(F)c(F)c(F)c1F`, for which the concentration at half-maximal activity (AC50) under setting [1] is 23.1 µM [falling, single point].

In the case of `Cc1ccc(OCc2nc(-c3ccccn3)no2)c(Br)c1`, the AC50 under setting [1] is 35.5 µM [falling, single point].

In the case of `CCN1C(=O)C(O)(CC(=O)/C=C/C=C/c2ccccc2)c2ccccc21` (stereo not drawn), the AC50 under setting [1] is 35.5 µM [falling, single point].

For the compound `NNC(=O)c1cc(-c2ccco2)[nH]n1`, the AC50 under setting [1] is 12.6 µM [falling, partial curve, poor fit].

In the case of `COc1ccccc1C(=O)NC(=O)COc1ccc(Cl)cc1Cl`, the half-maximal activity concentration (AC50) under setting [1] is 8.2 µM [rising, partial curve, poor fit].

Take `COc1ccc(Cn2c(=O)n(-c3ccc(OC)cc3)c(=O)c3c2c2cc(OC)ccc2n3C)cc1`: the AC50 under setting [1] is 35.5 µM [rising, single point].

As for `O=C(c1cc(-c2ccc3c(c2)OCO3)on1)N1CCOCC1`, the AC50 under setting [1] is 0.731 µM [falling, full curve, poor fit].

With `O=C(O)CN1C(=O)/C(=C/c2ccc(SCc3ccccc3)o2)SC1=S`, the AC50 runs as follows: under setting [1], 35.5 µM [falling, single point]; under setting [2], 5.62 µM [falling, single point].

As to `CC(C)S(=O)(=O)c1csc(C(=O)Nc2ccc(F)cc2)c1N`, under setting [1], the AC50 was 8.91 µM [falling, partial curve].

Take `Clc1ccc(-c2cc3ccccc3[nH]2)cc1`: the AC50 under setting [1] is 1 µM [rising, partial curve, poor fit].

For `CN(C)CCCN(C(=O)c1cccc(N2C(=O)CCC2=O)c1)c1nc2cc3c(cc2s1)OCO3`, under setting [1], the AC50 was 35.5 µM [falling, single point].

As to `COc1cccc(C(=O)NCCOc2cc(C)cc(C)c2)c1`, the concentration at half-maximal activity (AC50) is 18.4 µM [falling, partial curve, poor fit] under setting [1] and 29.1 µM [rising, partial curve, poor fit] under setting [2].

`Cn1c(C(=O)N2CCC(C(N)=O)CC2)cc2c(=O)n(C)c3ccccc3c21`: the half-maximal activity concentration (AC50) under setting [1] was 0.92 µM [rising, full curve, poor fit].

On to `COCCN(C(=O)c1ccc(C)o1)c1c(N)n(CC(C)C)c(=O)[nH]c1=O`, for which the AC50 under setting [1] was 16.4 µM [rising, partial curve, poor fit].

Consider `Cc1nc2scc(C)n2c(=O)c1S(=O)(=O)Nc1ccc(OC(F)(F)F)cc1`, for which the AC50 under setting [1] is 7.94 µM [falling, partial curve].

As to `COc1ccccc1C(=O)Oc1ccc(C(C)(C)C)cc1`, under setting [1], the AC50 was 20.6 µM [rising, single point].

As to `c1ccc(-c2n[nH]c(-c3ccccn3)n2)nc1`, under setting [1], the half-maximal activity concentration (AC50) is 6.51 µM [rising, single point].

Consider `CC(=O)c1cc(NC(=O)c2cccc(C(F)(F)F)c2)c(=O)oc1C`, for which, under setting [1], the AC50 was 15.8 µM [falling, partial curve, poor fit].

For the compound `Cc1ccc(C(=O)Nc2nc3nc(-c4ccccc4)cc(=O)n3[nH]2)cc1`, the AC50 under setting [1] is 29.1 µM [rising, single point].

Consider `O=C1c2ccccc2C(=O)N1CCCCSc1nnc(-c2ccc(OC(F)F)cc2)o1`, for which, under setting [1], the AC50 is 2.06 µM [falling, full curve].

With `CN(Cc1ccccc1)C(=O)COC(=O)c1cc2ccccc2oc1=O`, under setting [1], the AC50 was 0.326 µM [rising, full curve, poor fit].

As for `CCN(CC)C(=O)OCc1c(-c2cccc(OC)c2)ncc2ccccc12`, under setting [1], the AC50 was 32.6 µM [falling, single point].

For the compound `CC(NC(=O)Nc1ccc([N+](=O)[O-])cc1)C(c1cccs1)N1CCCC1` (stereo not drawn), under setting [1], the AC50 is 6.51 µM [rising, single point].

On to `CCCN1CCC2(CC1)C(C#N)=C(N)Oc1c2sc2nc(C)cc(C)c12`, for which the AC50 under setting [1] is 35.5 µM [falling, single point].

On to `O=C(N/N=C/c1ccco1)c1cccc(NC(=O)c2ccccc2Cl)c1`, for which, under setting [1], the half-maximal activity concentration (AC50) is 28.2 µM [falling, single point].

On to `O=C(O)/C=C/c1cccc2c1OCCO2`, for which the half-maximal activity concentration (AC50) under setting [1] is 22.4 µM [falling, single point].

Regarding `Cc1nc(SCC(=O)c2ccccc2)n[nH]1`, under setting [1], the AC50 is 35.5 µM [falling, single point].

Consider `Cc1cccc(-c2noc(CCCC(=O)NC3CCCC3)n2)c1`, for which the concentration at half-maximal activity (AC50) was 35.5 µM [rising, partial curve, poor fit] under setting [1] and 3.16 µM [rising, partial curve, poor fit] under setting [2].

On to `O=C(O)C(Nc1nc(C(F)(F)F)nc2ccccc12)c1ccccc1` (stereo not drawn), for which the AC50 under setting [1] was 17.8 µM [falling, single point].

`Cc1[nH]c(=O)[nH]c(=O)c1S(=O)(=O)Nc1cccc([N+](=O)[O-])c1C`: the AC50 under setting [1] was 0.562 µM [rising, full curve, poor fit].

For `Cn1nc(CC(=O)Nc2ncc(Br)s2)c2ccccc2c1=O`, the concentration at half-maximal activity (AC50) under setting [1] is 0.291 µM [rising, full curve, poor fit].

In the case of `Cc1nc2ccccc2c2oc(C(=O)NCC3COc4ccccc4O3)cc12` (stereo not drawn), the AC50 is 20.6 µM [falling, partial curve] under setting [1] and 7.31 µM [rising, partial curve, poor fit] under setting [2].

Consider `CN(c1ccccc1)S(=O)(=O)c1ccc(C(=O)NCc2ccccc2F)cc1`, for which, under setting [1], the AC50 was 29.1 µM [rising, single point].

In the case of `COC(=O)c1c(NC(=O)CCC(=O)O)sc2c1CCCCC2`, the AC50 under setting [1] was 18.4 µM [falling, single point].

`CCCN=Cc1c(CCC)[nH]n(-c2nc3ccccc3s2)c1=O`: the AC50 under setting [1] was 12.6 µM [falling, single point].

Take `COc1cc(C(=O)Nc2nc(-c3ccc(F)cc3)cs2)ccc1OCC(=O)N1CCOCC1`: the half-maximal activity concentration (AC50) under setting [1] was 23.1 µM [falling, single point].

As for `Nn1c(SCc2ccc(C(=O)O)cc2)nnc1-c1ccc(Cl)cc1Cl`, the half-maximal activity concentration (AC50) under setting [1] is 7.94 µM [falling, partial curve, poor fit].

For `COC(=O)c1cc(NC(=O)N2c3ccccc3Sc3ccccc32)cc(C(=O)OC)c1`, under setting [1], the concentration at half-maximal activity (AC50) was 3.16 µM [rising, single point].
